# Results as given in paper PMC9346270.
# Chains of the proteins cited; added tags and fusions are not shown. Lines headed by an entry give the natural chain unless they say otherwise; changes in a name come on top. A line that says so, or that is headed by a name, gives the form on record, which may keep a tag or linker.
# UniProt P12982: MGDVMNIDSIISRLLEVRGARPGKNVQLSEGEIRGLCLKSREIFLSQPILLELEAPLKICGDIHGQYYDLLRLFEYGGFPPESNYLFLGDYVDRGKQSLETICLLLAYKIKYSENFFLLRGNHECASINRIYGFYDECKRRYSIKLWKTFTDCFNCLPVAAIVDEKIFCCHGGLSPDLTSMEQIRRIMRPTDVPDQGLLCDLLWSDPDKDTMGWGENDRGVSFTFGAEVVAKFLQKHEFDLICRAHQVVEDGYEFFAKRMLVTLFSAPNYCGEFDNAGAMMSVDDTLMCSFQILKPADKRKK
# Scribble (Scrib), transgenic, overexpressed in follicle cells (Q7KRY7-2, form named): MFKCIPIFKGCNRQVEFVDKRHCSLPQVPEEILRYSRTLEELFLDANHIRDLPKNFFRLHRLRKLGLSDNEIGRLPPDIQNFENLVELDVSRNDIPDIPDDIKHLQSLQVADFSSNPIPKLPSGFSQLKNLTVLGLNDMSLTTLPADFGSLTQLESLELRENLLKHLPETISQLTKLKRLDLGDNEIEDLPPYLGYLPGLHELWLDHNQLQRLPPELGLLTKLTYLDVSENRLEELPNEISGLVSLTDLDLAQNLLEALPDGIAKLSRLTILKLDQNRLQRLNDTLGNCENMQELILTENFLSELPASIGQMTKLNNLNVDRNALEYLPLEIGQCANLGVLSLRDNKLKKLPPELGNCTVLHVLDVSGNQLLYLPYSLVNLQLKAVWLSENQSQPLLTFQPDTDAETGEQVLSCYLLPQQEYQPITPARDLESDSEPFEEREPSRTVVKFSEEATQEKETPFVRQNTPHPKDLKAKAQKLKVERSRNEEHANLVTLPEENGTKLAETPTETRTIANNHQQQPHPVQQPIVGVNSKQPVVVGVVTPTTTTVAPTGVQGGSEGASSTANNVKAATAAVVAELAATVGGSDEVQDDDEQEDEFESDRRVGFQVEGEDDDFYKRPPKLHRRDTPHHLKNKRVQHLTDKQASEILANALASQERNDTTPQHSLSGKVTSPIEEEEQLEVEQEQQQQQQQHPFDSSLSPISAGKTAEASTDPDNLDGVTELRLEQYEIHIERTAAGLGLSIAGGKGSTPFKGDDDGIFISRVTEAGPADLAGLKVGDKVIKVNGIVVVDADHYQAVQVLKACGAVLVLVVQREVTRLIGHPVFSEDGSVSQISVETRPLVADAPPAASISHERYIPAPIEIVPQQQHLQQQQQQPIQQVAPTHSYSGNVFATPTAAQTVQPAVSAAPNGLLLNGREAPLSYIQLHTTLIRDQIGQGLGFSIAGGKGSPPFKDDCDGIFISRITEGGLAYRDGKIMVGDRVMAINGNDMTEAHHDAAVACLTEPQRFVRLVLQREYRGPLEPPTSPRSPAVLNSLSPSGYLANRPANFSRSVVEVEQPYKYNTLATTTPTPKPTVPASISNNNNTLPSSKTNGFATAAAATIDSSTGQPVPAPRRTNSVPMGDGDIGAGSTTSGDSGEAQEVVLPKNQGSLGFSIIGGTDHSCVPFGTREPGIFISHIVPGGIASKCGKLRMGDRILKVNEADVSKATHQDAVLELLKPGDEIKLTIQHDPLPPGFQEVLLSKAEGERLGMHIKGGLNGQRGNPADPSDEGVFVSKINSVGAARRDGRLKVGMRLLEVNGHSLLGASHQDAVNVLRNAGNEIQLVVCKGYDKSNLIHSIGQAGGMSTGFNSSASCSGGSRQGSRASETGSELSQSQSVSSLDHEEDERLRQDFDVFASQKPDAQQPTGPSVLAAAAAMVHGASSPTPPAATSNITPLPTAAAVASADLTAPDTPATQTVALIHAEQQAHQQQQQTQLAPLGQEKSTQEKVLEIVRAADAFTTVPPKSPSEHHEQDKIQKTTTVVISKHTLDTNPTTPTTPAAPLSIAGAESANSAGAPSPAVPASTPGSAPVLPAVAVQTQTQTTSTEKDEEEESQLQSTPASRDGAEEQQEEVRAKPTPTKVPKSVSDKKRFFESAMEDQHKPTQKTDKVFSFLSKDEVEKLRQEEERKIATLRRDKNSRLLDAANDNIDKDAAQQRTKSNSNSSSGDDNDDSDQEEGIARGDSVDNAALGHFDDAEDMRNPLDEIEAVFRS
# No constants are given. Whether binding was seen depends on the method and setting. Binding seen in cells or lysates may run through a third protein.
# T1: Discs-large (Dlg), transgenic, overexpressed in follicle cells (Drosophila melanogaster) (UniProt P31007)
# T1 sequence: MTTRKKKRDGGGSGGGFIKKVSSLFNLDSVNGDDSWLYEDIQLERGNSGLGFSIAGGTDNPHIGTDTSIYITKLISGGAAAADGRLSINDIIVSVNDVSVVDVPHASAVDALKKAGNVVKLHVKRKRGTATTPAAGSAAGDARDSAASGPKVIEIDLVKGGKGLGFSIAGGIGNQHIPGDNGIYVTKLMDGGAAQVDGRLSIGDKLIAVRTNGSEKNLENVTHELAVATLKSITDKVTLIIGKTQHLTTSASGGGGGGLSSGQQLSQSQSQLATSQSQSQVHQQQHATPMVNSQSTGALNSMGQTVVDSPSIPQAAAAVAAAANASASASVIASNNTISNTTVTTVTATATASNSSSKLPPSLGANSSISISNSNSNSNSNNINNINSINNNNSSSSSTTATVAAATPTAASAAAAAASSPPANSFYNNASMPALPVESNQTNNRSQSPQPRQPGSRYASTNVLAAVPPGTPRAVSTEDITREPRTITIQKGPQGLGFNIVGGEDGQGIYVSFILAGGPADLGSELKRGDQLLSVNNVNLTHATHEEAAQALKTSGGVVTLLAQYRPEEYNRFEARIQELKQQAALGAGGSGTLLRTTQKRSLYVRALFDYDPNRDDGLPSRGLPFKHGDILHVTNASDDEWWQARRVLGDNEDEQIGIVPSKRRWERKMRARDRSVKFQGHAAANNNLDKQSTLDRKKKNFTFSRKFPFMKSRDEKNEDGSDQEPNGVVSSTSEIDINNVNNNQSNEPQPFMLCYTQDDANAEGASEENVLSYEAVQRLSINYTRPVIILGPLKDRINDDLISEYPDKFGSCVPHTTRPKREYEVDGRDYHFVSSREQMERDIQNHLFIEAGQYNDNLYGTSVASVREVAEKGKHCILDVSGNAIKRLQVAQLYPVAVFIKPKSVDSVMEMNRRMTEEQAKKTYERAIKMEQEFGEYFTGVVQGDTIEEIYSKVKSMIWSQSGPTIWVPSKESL
# B1: Discs-large (Dlg), transgenic, overexpressed in follicle cells (protein, UniProt P31007-5 1-975)
# chain: T1 sequence
# B2: Dlg, overexpressed in S2 cells (protein, UniProt P31007-5 1-975)
# chain: T1 sequence
# What was measured:
# [1] = target: PP1 (Pp1-87B), overexpressed in S2 cells (Drosophila) (UniProt P12982); test: co-IP; proteins overexpressed in S2 cells; lysed in IP buffer (10 mM Tris, 150 mM NaCl, 0.5 mM EDTA, 0.5% NP-40); antibody-conjugated Protein G Dynabeads overnight at 4°C; also after in situ crosslinking with 2 mM DSS before lysis; for Fig. S5D also with severalfold more starting material
# [2] = target: Protein Phosphatase 1α (PP1α) homolog Pp1-87B, transgenic, overexpressed in follicle cells (Drosophila) (UniProt P12982); test: co-IP; transgenic proteins overexpressed in follicle cells; ovary tissue lysed in IP buffer (10 mM Tris, 150 mM NaCl, 0.5 mM EDTA, 0.5% NP-40); 200 µg protein on antibody-conjugated Protein G Dynabeads overnight at 4°C; western blot
# [3] = target: T1, Discs-large (Dlg), transgenic, overexpressed in follicle cells (Drosophila melanogaster); test: co-IP; extracts from follicles; told only in the discussion as 'biochemically detect'; no figure named
Molecule,binding [1],binding [2],binding [3]
"Scrib, overexpressed in S2 cells (from UniProt Q7KRY7-2 1-1756)",no binding,–,–
"Scribble (Scrib), transgenic, overexpressed in follicle cells (from UniProt Q7KRY7-2 1-1756)",–,no binding,no binding
B1,–,no binding,–
B2,no binding,–,–
